This is an account of results in PubChem BioAssay AID256 (DTP/NCI, 2004).

The list does not hold the whole screen: its compounds were picked by chemical class. Other doses and runs of a compound may be missing. T/C is the treated group as % of the vehicle group. Some doses have a count of surviving animals in place of a T/C: the source files T/C as zero there, which appears to mark a toxic dose or a test without result, not a measured value. Some survivor counts are full or nearly so, which does not show that the dose was tolerated: the source hardly ever lists a survival T/C far under the control, and the zero likely stands for such cases as well. Counts of survivors are from the toxicity check (mostly the fifth day) where no day follows; animals may have died later. Schedules are NCI's codes, read here as Q, the interval in days (D) or hours (H), X, the number of doses. Where survival is the endpoint, the PubChem record calls one and a half times the control and up active, and a quarter to a half above the control has no call in these data; cut-offs in other NCI protocols can differ. Some entries hold several experiments; their values stand side by side, smallest first. Some T/C values carry the count of animals alive at the toxicity check (mostly the fifth day); where neither a count nor a note follows, no animal had died by that day.

This assay relates to CD2F1 mice, L1210 leukemia ip, survival T/C. The assay is described as follows: NCI In Vivo Anticancer Drug Screen. Data for tumor model L1210 Leukemia (intraperitoneal) in CD2F1 (CDF1) mice. The settings on record: higher T/C = longer survival. An outline of the steps: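 Activity against a transplanted murine tumor was judged by comparing the compound group with a vehicle group. The outcome in the treated animals was divided by that in the controls.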

For the compound `NCCNCCCl`, the T/C is 104 % of control (T/C endpoint: mean survival time, dose: 50.0 mg/kg/injection, schedule: Q01DX009 (ip), vehicle: saline); 97 % of control (T/C endpoint: mean survival time, dose: 100.0 mg/kg/injection, schedule: Q01DX009 (ip), vehicle: saline); 97 % of control (T/C endpoint: mean survival time, dose: 200.0 mg/kg/injection, schedule: Q01DX009 (ip), vehicle: saline); 112 % of control (T/C endpoint: mean survival time, dose: 400.0 mg/kg/injection, schedule: Q01DX009 (ip), vehicle: saline).
On to `Cc1ccc(Sc2ccc([N+](=O)[O-])cc2[N+](=O)[O-])c([N+](=O)[O-])c1`, for which the T/C was 98 % of control (T/C endpoint: median survival time, dose: 12.5 mg/kg/injection, schedule: Q01DX009 (ip), vehicle: saline); 116 % of control (T/C endpoint: median survival time, dose: 25.0 mg/kg/injection, schedule: Q01DX009 (ip), vehicle: Klucel (hydroxypropylcellulose) (HPC)); 102 % of control (T/C endpoint: median survival time, dose: 25.0 mg/kg/injection, schedule: Q01DX009 (ip), vehicle: saline); 103 % of control (T/C endpoint: median survival time, dose: 50.0 mg/kg/injection, schedule: Q01DX009 (ip), vehicle: Klucel (hydroxypropylcellulose) (HPC)); 108 % of control (T/C endpoint: median survival time, dose: 50.0 mg/kg/injection, schedule: Q01DX009 (ip), vehicle: saline with Tween-80); 98 % of control (T/C endpoint: median survival time, dose: 50.0 mg/kg/injection, schedule: Q01DX009 (ip), vehicle: saline). In addition, the T/C reads like this: (T/C endpoint: median survival time, dose: 100.0 mg/kg/injection, schedule: Q01DX009 (ip), vehicle: Klucel (hydroxypropylcellulose) (HPC)) 112 % of control; (T/C endpoint: median survival time, dose: 100.0 mg/kg/injection, schedule: Q01DX009 (ip), vehicle: saline with Tween-80) 106 % of control; (T/C endpoint: median survival time, dose: 100.0 mg/kg/injection, schedule: Q01DX009 (ip), vehicle: saline) 104 % of control; (T/C endpoint: median survival time, dose: 200.0 mg/kg/injection, schedule: Q01DX009 (ip), vehicle: Klucel (hydroxypropylcellulose) (HPC)) 103 % of control; (T/C endpoint: median survival time, dose: 200.0 mg/kg/injection, schedule: Q01DX009 (ip), vehicle: saline with Tween-80) 102 % of control; (T/C endpoint: median survival time, dose: 200.0 mg/kg/injection, schedule: Q01DX009 (ip), vehicle: saline) 98 % of control. The T/C was 111 % of control (T/C endpoint: median survival time, dose: 400.0 mg/kg/injection, schedule: Q01DX009 (ip), vehicle: Klucel (hydroxypropylcellulose) (HPC)); 100 % of control (T/C endpoint: median survival time, dose: 400.0 mg/kg/injection, schedule: Q01DX009 (ip), vehicle: saline with Tween-80); 102 % of control (T/C endpoint: median survival time, dose: 400.0 mg/kg/injection, schedule: Q01DX009 (ip), vehicle: saline); 108 % of control [4 of 6 alive] (T/C endpoint: median survival time, dose: 800.0 mg/kg/injection, schedule: Q01DX009 (ip), vehicle: Klucel (hydroxypropylcellulose) (HPC)); 107 % of control (T/C endpoint: median survival time, dose: 800.0 mg/kg/injection, schedule: Q01DX009 (ip), vehicle: saline with Tween-80).
For the compound `CS(=O)(=O)OC1CSCCc2ccccc21` (centres undefined), the survivor count (T/C endpoint: mean survival time, dose: 100.0 mg/kg/injection, schedule: Q01DX001 (ip), vehicle: carboxymethylcellulose (CMC)) was 1 of 4; the survivor count (T/C endpoint: mean survival time, dose: 200.0 mg/kg/injection, schedule: Q01DX001 (ip), vehicle: carboxymethylcellulose (CMC)) is listed as 2 of 4; the survivor count (T/C endpoint: mean survival time, dose: 400.0 mg/kg/injection, schedule: Q01DX001 (ip), vehicle: carboxymethylcellulose (CMC)) is 1 of 4.
For the compound `CCNP(=O)(OCCC(C)O)N(CCCl)CCCl` (centres undefined), the T/C runs as follows: (T/C endpoint: mean survival time, dose: 62.5 mg/kg/injection, schedule: Q01DX001 (ip), vehicle: DMSO) 98 % of control; (T/C endpoint: mean survival time, dose: 125.0 mg/kg/injection, schedule: Q01DX001 (ip), vehicle: DMSO) 105 % of control; (T/C endpoint: mean survival time, dose: 178.0 mg/kg/injection, schedule: Q01DX001 (ip), vehicle: DMSO) 124 % of control; (T/C endpoint: mean survival time, dose: 250.0 mg/kg/injection, schedule: Q01DX001 (ip), vehicle: DMSO) 130 % of control; (T/C endpoint: mean survival time, dose: 266.0 mg/kg/injection, schedule: Q01DX001 (ip), vehicle: DMSO) 133 % of control; (T/C endpoint: mean survival time, dose: 400.0 mg/kg/injection, schedule: Q01DX001 (ip), vehicle: DMSO) 179 % of control. Also, for the setting “T/C endpoint: mean survival time, dose: 500.0 mg/kg/injection, schedule: Q01DX001 (ip), vehicle: DMSO”, the T/C is 164 % of control. Besides, the survivor count runs as follows: (T/C endpoint: mean survival time, dose: 600.0 mg/kg/injection, schedule: Q01DX001 (ip), vehicle: DMSO) 6 of 6; (T/C endpoint: mean survival time, dose: 900.0 mg/kg/injection, schedule: Q01DX001 (ip), vehicle: DMSO) 0 of 6.
Regarding `N#CCCOP(=O)(N(CCCl)CCCl)N1CC1` (centres undefined), the T/C is 90 % of control (T/C endpoint: mean survival time, dose: 7.8 mg/kg/injection, schedule: Q01DX001 (ip), vehicle: Klucel (hydroxypropylcellulose) (HPC)); 93 % of control (T/C endpoint: mean survival time, dose: 12.5 mg/kg/injection, schedule: Q01DX009 (ip), vehicle: Klucel (hydroxypropylcellulose) (HPC)); 96 % of control (T/C endpoint: mean survival time, dose: 15.6 mg/kg/injection, schedule: Q01DX001 (ip), vehicle: Klucel (hydroxypropylcellulose) (HPC)); 101 % of control (T/C endpoint: mean survival time, dose: 25.0 mg/kg/injection, schedule: Q01DX009 (ip), vehicle: Klucel (hydroxypropylcellulose) (HPC)); 95 % of control (T/C endpoint: mean survival time, dose: 31.3 mg/kg/injection, schedule: Q01DX001 (ip), vehicle: Klucel (hydroxypropylcellulose) (HPC)); 108 % of control (T/C endpoint: mean survival time, dose: 50.0 mg/kg/injection, schedule: Q01DX009 (ip), vehicle: Klucel (hydroxypropylcellulose) (HPC)). In addition, the T/C is 102 % of control (T/C endpoint: mean survival time, dose: 62.5 mg/kg/injection, schedule: Q01DX001 (ip), vehicle: Klucel (hydroxypropylcellulose) (HPC)); 119 % of control (T/C endpoint: mean survival time, dose: 100.0 mg/kg/injection, schedule: Q01DX009 (ip), vehicle: Klucel (hydroxypropylcellulose) (HPC)); 104 and 120 % of control (T/C endpoint: mean survival time, dose: 125.0 mg/kg/injection, schedule: Q01DX001 (ip), vehicle: Klucel (hydroxypropylcellulose) (HPC)); 121 % of control [4 of 6 alive] (T/C endpoint: mean survival time, dose: 200.0 mg/kg/injection, schedule: Q01DX009 (ip), vehicle: Klucel (hydroxypropylcellulose) (HPC)); 86 % of control (T/C endpoint: mean survival time, dose: 200.0 mg/kg/injection, schedule: Q01DX009 (ip), vehicle: water); 113 % of control (T/C endpoint: mean survival time, dose: 250.0 mg/kg/injection, schedule: Q01DX001 (ip), vehicle: Klucel (hydroxypropylcellulose) (HPC)). In addition, the T/C (T/C endpoint: mean survival time, dose: 400.0 mg/kg/injection, schedule: Q01DX009 (ip), vehicle: water) was 102 % of control. Also, the survivor count (T/C endpoint: mean survival time, dose: 300.0 mg/kg/injection, schedule: Q01DX009 (ip), vehicle: water) is listed as 6 of 6; the survivor count (T/C endpoint: mean survival time, dose: 500.0 mg/kg/injection, schedule: Q01DX001 (ip), vehicle: Klucel (hydroxypropylcellulose) (HPC)) is listed as 0 of 6; the survivor count (T/C endpoint: mean survival time, dose: 1000.0 mg/kg/injection, schedule: Q01DX001 (ip), vehicle: Klucel (hydroxypropylcellulose) (HPC)) is reported as 0 of 6.
